# PubChem BioAssay AID1259254 | NCATS – 2017
# Aim: 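Genome-wide screen for genes that prevent DNA re-replication in cancer cells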 (primary screen)
# System: human HCT116 colorectal cancer cells
# Reagents: single siRNA against human genes
# Time to read-out: 3 days
# Measurement: 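Imaged Hoechst DNA stain sorts each cell into a cycle phase by DNA amount; per plate, G2 fraction set to 0% for non-targeting and 100% for GMNN siRNA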
# Scale: G2 robust z-score and G2 cells, % of GMNN control: higher = more G2 cells, more excess DNA replication
# Rule for the call: 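An siRNA counts as active if its G2 robust z-score lies at least 5 MADs above the screen median; here such calls match roughly 38% of GMNN control or more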
# The whole screen tested about 59,000 reagents; shown is a part drawn at random. About 1,550 of them (2.6%) count as active. 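G2 share is only a proxy for re-replication; each gene was hit by three separate siRNAs, and active genes were retested.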 Reagents against one gene are numbered here. Not all columns of the deposit are shown. Not stated in the record: the amount of reagent.
gene symbol,siRNA no.,G2 robust z-score,"G2 cells, % of GMNN control",Call
MCFD2P1 (multiple coagulation factor deficiency 2 pseudogene 1),1,9.32,68.5,active
MCFD2P1 (multiple coagulation factor deficiency 2 pseudogene 1),2,0.757,8.29,inactive
MCFD2P1 (multiple coagulation factor deficiency 2 pseudogene 1),3,0.904,9.33,inactive
MAP2K4 (mitogen-activated protein kinase kinase 4),1,-1.18,-5.34,inactive
MAP2K4 (mitogen-activated protein kinase kinase 4),2,-1.17,-5.24,inactive
MAP2K4 (mitogen-activated protein kinase kinase 4),3,2.28,19,inactive
CCDC163 (CCDC163 homolog),1,-0.56,-0.97,inactive
CCDC163 (CCDC163 homolog),2,0.0904,3.6,inactive
CCDC163 (CCDC163 homolog),3,-0.647,-1.58,inactive
KCNH2 (potassium voltage-gated channel subfamily H member 2),1,-0.588,-1.17,inactive
KCNH2 (potassium voltage-gated channel subfamily H member 2),2,0.0909,3.61,inactive
KCNH2 (potassium voltage-gated channel subfamily H member 2),3,0.12,3.81,inactive
ADAR (adenosine deaminase RNA specific),1,1.36,12.5,inactive
ADAR (adenosine deaminase RNA specific),2,-0.0706,2.47,inactive
ADAR (adenosine deaminase RNA specific),3,-1,-4.1,inactive
P2RX6 (purinergic receptor P2X 6),1,-0.832,-2.88,inactive
P2RX6 (purinergic receptor P2X 6),2,-0.574,-1.07,inactive
P2RX6 (purinergic receptor P2X 6),3,-1.11,-4.85,inactive
OR4N3P (olfactory receptor family 4 subfamily N member 3 pseudogene),1,0.179,4.22,inactive
OR4N3P (olfactory receptor family 4 subfamily N member 3 pseudogene),2,0.158,4.08,inactive
OR4N3P (olfactory receptor family 4 subfamily N member 3 pseudogene),3,0.0253,3.15,inactive
TEX28 (testis expressed 28),1,0.964,9.75,inactive
TEX28 (testis expressed 28),2,0.961,9.73,inactive
TEX28 (testis expressed 28),3,2.16,18.2,inactive
PEX11B (peroxisomal biogenesis factor 11 beta),1,-0.392,0.209,inactive
PEX11B (peroxisomal biogenesis factor 11 beta),2,-0.345,0.543,inactive
PEX11B (peroxisomal biogenesis factor 11 beta),3,0.992,9.95,inactive
PRB4 (proline rich protein BstNI subfamily 4),1,2.06,17.5,inactive
PRB4 (proline rich protein BstNI subfamily 4),2,0.0327,3.2,inactive
PRB4 (proline rich protein BstNI subfamily 4),3,0.835,8.84,inactive
PRTN3 (proteinase 3),1,-1.63,-8.5,inactive
PRTN3 (proteinase 3),2,4.84,37,inactive
PRTN3 (proteinase 3),3,0.395,5.75,inactive
VPS50 (VPS50 subunit of EARP/GARPII complex),1,-0.437,-0.109,inactive
VPS50 (VPS50 subunit of EARP/GARPII complex),2,0.39,5.71,inactive
VPS50 (VPS50 subunit of EARP/GARPII complex),3,-1.12,-4.9,inactive
HCRTR2 (hypocretin receptor 2),1,-0.727,-2.15,inactive
HCRTR2 (hypocretin receptor 2),2,-0.418,0.0278,inactive
HCRTR2 (hypocretin receptor 2),3,-0.507,-0.597,inactive
TRAM1 (translocation associated membrane protein 1),1,1.53,13.7,inactive
TRAM1 (translocation associated membrane protein 1),2,-0.126,2.08,inactive
TRAM1 (translocation associated membrane protein 1),3,-0.276,1.03,inactive
GEMIN6 (gem nuclear organelle associated protein 6),1,0.234,4.62,inactive
GEMIN6 (gem nuclear organelle associated protein 6),2,2.39,19.8,inactive
GEMIN6 (gem nuclear organelle associated protein 6),3,-0.272,1.05,inactive
RPS2P8 (ribosomal protein S2 pseudogene 8),1,5.48,41.5,active
RPS2P8 (ribosomal protein S2 pseudogene 8),2,2.19,18.4,inactive
RPS2P8 (ribosomal protein S2 pseudogene 8),3,-0.125,2.09,inactive

Targets listed so far whose target name starts with K or k:
gene symbol,siRNA no.,G2 robust z-score,"G2 cells, % of GMNN control",Call
KCNH2 (potassium voltage-gated channel subfamily H member 2),1,-0.588,-1.17,inactive
KCNH2 (potassium voltage-gated channel subfamily H member 2),2,0.0909,3.61,inactive
KCNH2 (potassium voltage-gated channel subfamily H member 2),3,0.12,3.81,inactive
